Assay results reported in US20250311759A1, “ORGANIC COMPOUNDS” (GIVAUDAN SA, priority 2022, published 2025).

System: sensory panel
Experiment: Taste in water by a sensory panel
Type: in vivo

Compound | taste in water (50 ppm in water) | taste in water (100 ppm in water) | taste in water (1000 ppm in water) | taste in water (up to a concentration level of 40 ppm in water) | taste in water (30 ppm in water) | taste in water (90 ppm in water) | taste in water (70 ppm in water)
c1c[nH]cn1 [1H-imidazole] | subtle salty taste | weak salty taste along with some astringency and acidity | weak salty taste, but there is mainly a bitter taste | no effect |  |  | 
O=C(O)Cc1c[nH]cn1 [2-(1H-imidazol-4-yl)acetic acid] |  |  |  |  | subtle salty and mineral taste | weak salty, mineralic taste with a slightly sour note | 
c1ccc2[nH]cnc2c1 [benzimidazole] |  |  |  |  | subtle salty and sour taste |  | weak salty taste along with some sour background
